{
  "source": "PubChem BioAssay AID504444",
  "about": "(National Center for Advancing Translational Sciences (NCATS), 2011)",
  "note": "Hit rate of the full screen: of about 360,000 compounds, about 7,500 (2.1%) were called active. The inconclusive results got no clear call from the source; some entries with a clear call stand among them for comparison. The call rests on the fitted dose curve; in most records, active means well fitted inhibition curve with a large enough effect; inconclusive means small, poorly fitted or top-dose-only effect, or effect the other way; inactive means flat fitted curve, though single readings scatter. Potencies of inconclusive entries are doubtful fits and often do not repeat. Potency means the concentration at half of the fitted maximal effect.",
  "data": [
    {"assay": "Nrf2 qHTS screen for inhibitors; further: nearly all actives have a fitted effect of over 60% in size", "conditions": "A549 ARE-Fluc reporter, luciferase luminescence, 18-24 h; series mostly up to 46 µM", "how_it_was_run": "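A549 ARE_Fluc cells, 5000/well, 5% FBS OPTI-MEM; compounds in dose-response, 18-24 h at 37 °C/5% CO2; CellTiter-Fluor viability read (Ex 405/Em 525), then BugLite luciferase luminescence = Nrf2 activity.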", "values": [
      {"smiles": "O=C(Cn1ncc(Cl)c(Cl)c1=O)N1CCN(S(=O)(=O)c2ccc3ccccc3c2)CC1", "Potency": "inconclusive: 20.6 µM [activator, partial curve, poor fit]"},
      {"smiles": "COc1ccnc(NCc2cccnc2)c1C#N", "Potency": "inconclusive: 5.8 µM [activator, partial curve, poor fit]"},
      {"smiles": "O=C(NC1CCCCCCC1)c1c(O)c2ccccc2[nH]c1=O", "Potency": "inconclusive: 9.2 µM [activator, single point]"},
      {"smiles": "COC(=O)N/N=C/c1cc(Cl)c(OCc2ccc(F)cc2)c(OC)c1", "Potency": "inactive"},
      {"smiles": "CCN(Cc1ccccc1)C(=O)Cn1c(=O)n(-c2cccc(C)c2)c(=O)c2c1c1cc(C)ccc1n2C", "Potency": "inconclusive: 9.2 µM [activator, partial curve, poor fit]"},
      {"smiles": "CC(=O)N(O)CCCCCNC(=O)CCC(=O)N(O)CCCCCNC(=O)CCC(=O)N(O)CCCCCN", "Potency": "active: 10.3 µM"},
      {"smiles": "C=CCc1ccccc1OCc1nc2ccccc2n1CC", "Potency": "inconclusive: 25.9 µM [falling, partial curve, poor fit]"},
      {"smiles": "Cc1csc(NC(=O)c2cc3c(s2)CCC3)n1", "Potency": "inconclusive: 0.731 µM [activator, full curve, poor fit]"},
      {"smiles": "CN(C)/N=C/c1cc([N+](=O)[O-])ccc1O", "Potency": "inconclusive: 16.4 µM [activator, partial curve, poor fit]"},
      {"smiles": "COc1ccc(-c2nc(SCC(=O)Nc3ccc4c(c3)OCCO4)c(-c3ccc(F)cc3)[nH]2)cc1OC", "Potency": "inconclusive: 29.1 µM [falling, partial curve, poor fit]"},
      {"smiles": "O=C(c1ccc2c(c1)N(Cc1ccc(F)cc1)C(=O)c1ccccc1S2(=O)=O)N1CCN(Cc2ccccc2)CC1", "Potency": "inconclusive: 18.4 µM [falling, partial curve]"},
      {"smiles": "Nc1nc(SCC(=O)Nc2ccccc2)nc2nc3c(cc12)CCCC3", "Potency": "inconclusive: 29.1 µM [falling, single point]"},
      {"smiles": "COc1cc(C2Nc3ccccc3C(=O)N2c2ccccc2)ccc1O", "note": "(centres undefined)", "Potency": "inconclusive: 18.4 µM [activator, single point]"},
      {"smiles": "O=C(N/N=C/c1ccccc1)c1[nH]ncc1Br", "Potency": "inconclusive: 9.2 µM [activator, partial curve, poor fit]"},
      {"smiles": "COc1ccc(OCc2cc(C(=O)N3CCCC(O)C3)no2)c2ccccc12", "note": "(centres undefined)", "Potency": "inconclusive: 4.11 µM [activator, full curve]"},
      {"smiles": "COc1ccc(Nc2nc(NCc3ccco3)nc(N/N=C/c3ccccc3)n2)cc1", "Potency": "inconclusive: 32.6 µM [falling, single point]"},
      {"smiles": "O=S(=O)(c1ccc2c(c1)OCCO2)N1CCN(S(=O)(=O)c2cc(F)c(Br)cc2F)CC1", "Potency": "inactive"},
      {"smiles": "CON(C)c1nc(OCCNC(=O)OCc2ccc(Cl)cc2C)nc(N(C)C)n1", "Potency": "inconclusive: 32.6 µM [falling, single point]"},
      {"smiles": "CCCCNc1ccc(-c2nc(-c3ccco3)no2)cc1[N+](=O)[O-]", "Potency": "inconclusive: 5.8 µM [activator, partial curve, poor fit]"},
      {"smiles": "C/C(=N\\NC(=O)c1c(Cl)c(C)nn1C)c1cccc(NC(=O)c2cccc(F)c2)c1", "Potency": "active: 9.2 µM"},
      {"smiles": "Cc1[nH]c2ccccc2c1C1=CC(=O)C=CC1=O", "Potency": "inactive"},
      {"smiles": "CCOc1ccc(C(=O)Nc2cccc(NC(=O)c3ccc(C(C)(C)C)cc3)c2)cc1Br", "Potency": "inconclusive: 2.59 µM [activator, full curve]"},
      {"smiles": "Clc1cc2c(cc1/C=N/Nc1nc(N3CCOCC3)nc(N3CCOCC3)n1)OCO2", "Potency": "inactive"},
      {"smiles": "O=C(Nc1ccc(N2CCN(C(=O)c3ccc(Cl)cc3)CC2)cc1)c1ccc2c(c1)OCCO2", "Potency": "active: 6.51 µM"},
      {"smiles": "CC(=O)c1cccc(NC(=O)C2CCCN(C(=O)c3cnn(-c4ccccc4)c3-n3cccc3)C2)c1", "note": "(centres undefined)", "Potency": "inactive"},
      {"smiles": "Cc1cccc(N2CCN(S(=O)(=O)c3cc(Cl)ccc3Cl)CC2)c1C", "Potency": "inconclusive: 6.51 µM [falling, partial curve, poor fit]"},
      {"smiles": "COc1ccc(-c2cc(-c3ccccc3)nc(Cl)n2)cc1OC", "Potency": "inconclusive: 32.6 µM [falling, single point]"},
      {"smiles": "COc1ccc(CC2(CO)CCN(S(=O)(=O)c3c(C)nn(C)c3Cl)CC2)cc1", "Potency": "inactive"},
      {"smiles": "O=C(CSc1nnnn1C1CCCC1)c1ccc2c(c1)OCCO2", "Potency": "inconclusive: 25.9 µM [activator, single point]"},
      {"smiles": "Cn1c2ccccc2c2cnn(CC(=O)N3CCN(c4cccc(C(F)(F)F)c4)CC3)c(=O)c21", "Potency": "inactive"},
      {"smiles": "Oc1ccc(N=Cc2cc(Br)c(N3CCOCC3)o2)cc1", "Potency": "inactive"},
      {"smiles": "COc1cc(C)c(CN2CCN(S(=O)(=O)c3ccc(Cl)s3)CC2)cc1OC", "Potency": "inconclusive: 32.6 µM [falling, single point]"},
      {"smiles": "Cc1ccc(-c2nc(-c3ccccc3)no2)c(Cl)c1", "Potency": "inconclusive: 29.1 µM [falling, single point]"},
      {"smiles": "Cc1cc(C)n(-c2nc3ccccc3nc2Nc2ccc(Cl)c(C(=O)OC(C)C)c2)n1", "Potency": "inactive"},
      {"smiles": "CCN(CC)Cc1cc(Nc2c3ccccc3nc3c4ccccc4n(C)c23)cc(CN(CC)CC)c1O", "Potency": "inconclusive: 0.164 µM [falling, partial curve, poor fit]"},
      {"smiles": "COc1ccc2c(c1)[C@H]1[C@H](CO2)[C@H](c2ccccc2)[C@]2(C)C(=O)Nc3cc(OC)c(OC)cc3C(=O)N12", "Potency": "inconclusive: 0.461 µM [activator, full curve]"},
      {"smiles": "COc1ccc(CCNC(=O)NCCc2c[nH]c3ccccc23)cc1OC", "Potency": "inconclusive: 5.8 µM [falling, partial curve, poor fit]"},
      {"smiles": "C=CC[C@@H](CC(=O)N(CCO)Cc1ccccc1)C(=O)N[C@@H](COC(=O)[C@H](CC=C)CC(=O)OC(C)(C)C)Cc1c[nH]c2ccccc12", "Potency": "active: 23.1 µM"},
      {"smiles": "COc1cc2c(cc1OC)C(C)N(C(=O)c1ccc(Cl)c(S(=O)(=O)N3CCCCC3)c1)CC2", "note": "(centres undefined)", "Potency": "inconclusive: 20.6 µM [falling, single point]"},
      {"smiles": "CN(C)C(CNC(=O)c1ccco1)c1cccs1", "note": "(centres undefined)", "Potency": "inconclusive: 16.4 µM [activator, partial curve, poor fit]"},
      {"smiles": "COc1ccc(O)c(/C=N/NC(=O)c2ccc(OCc3cccc(Br)c3)cc2)c1", "Potency": "inactive"},
      {"smiles": "COc1cc2c(cc1OC)C(C)N(CC(=O)Nc1ccc(S(=O)(=O)N3CCCC3)cc1)CC2", "note": "(centres undefined)", "Potency": "inconclusive: 13 µM [falling, partial curve]"},
      {"smiles": "COc1ccc(S(=O)(=O)N(C)c2ccc(C(=O)N3CCCCC3)cc2)cc1OC", "Potency": "active: 11.6 µM"},
      {"smiles": "CC1CN(S(=O)(=O)c2cccc(C(=O)NCCC3=CCCCC3)c2)CC(C)O1", "note": "(centres undefined)", "Potency": "inconclusive: 14.6 µM [falling, partial curve, poor fit]"},
      {"smiles": "Cc1nnc(SCc2nc3ccccc3s2)n1N", "Potency": "inconclusive: 25.9 µM [activator, single point]"},
      {"smiles": "Cc1ccc(S(=O)(=O)N(CC(=O)Nc2cccc(N(C)S(C)(=O)=O)c2)c2ccc(Cl)c(Cl)c2)cc1", "Potency": "inconclusive: 16.4 µM [falling, single point]"},
      {"smiles": "COCCCNC(=O)c1ccc(-n2c(-c3ccccc3)cc3c2CCCC3)cc1", "Potency": "inactive"},
      {"smiles": "Cc1ccccc1NC(=O)c1cccc2nc3ccccc3nc12", "Potency": "active: 5.17 µM"},
      {"smiles": "O=C(OCc1cc(=O)n2nc(C3CCCCC3)sc2n1)c1ccccc1Cl", "Potency": "inconclusive: 9.2 µM [activator, partial curve, poor fit]"},
      {"smiles": "O=C(CCCN1C(=O)/C(=C/c2ccccc2Cl)SC1=S)NNC(=O)c1cccnc1", "Potency": "inconclusive: 20.6 µM [falling, partial curve, poor fit]"},
      {"smiles": "O=C(NCc1ccccc1)c1ccc(Cl)c(S(=O)(=O)N2CCCC2)c1", "Potency": "inconclusive: 25.9 µM [falling, single point]"},
      {"smiles": "CCn1cc(S(=O)(=O)c2ccccc2)c(=O)c2cc(F)c(N3CCCC3)cc21", "Potency": "inconclusive: 29.1 µM [falling, single point]"},
      {"smiles": "COc1ccccc1OCCSc1nc2ccccc2n1CC(N)=O", "Potency": "inconclusive: 5.8 µM [activator, full curve, poor fit]"},
      {"smiles": "Cc1ccc2cc(CN(CC(C)C)S(=O)(=O)c3cccc4nonc34)c(=O)[nH]c2c1", "Potency": "inactive"},
      {"smiles": "Cc1cc(C)cc(NS(=O)(=O)c2ccc3[nH]cc(C(=O)NC4CCCCC4)c(=O)c3c2)c1", "Potency": "active: 23.1 µM"},
      {"smiles": "CCN1CCCc2cc(CN(CCN3CCOCC3)C(=S)Nc3ccc(C)cc3)ccc21", "Potency": "inconclusive: 13 µM [activator, partial curve, poor fit]"},
      {"smiles": "CCN(CC)/C(Sc1ccccc1)=C(\\C(Cl)=C(Cl)Cl)[N+](=O)[O-]", "Potency": "inactive"},
      {"smiles": "Clc1ccc2ncc(-c3nnnn3-c3ccccc3)c(-c3ccccc3)c2c1", "Potency": "inconclusive: 29.1 µM [falling, single point]"},
      {"smiles": "O=c1cc(-c2ccc(O)cc2)oc2c1ccc1ccccc12", "Potency": "inconclusive: 18.4 µM [falling, partial curve]"},
      {"smiles": "CCCC1C(=O)Nc2ccccc2N1C(=O)c1ccc(C(C)(C)C)cc1", "note": "(centres undefined)", "Potency": "inconclusive: 18.4 µM [falling, single point]"},
      {"smiles": "C/C(=N\\NC(=O)c1c[nH]c2ccccc12)c1ccc(C)o1", "Potency": "inconclusive: 1.84 µM [activator, full curve, poor fit]"},
      {"smiles": "COC(=O)c1ccc(NC(=O)CSc2nc3cccnc3n2C)cc1", "Potency": "inconclusive: 18.4 µM [falling, partial curve, poor fit]"},
      {"smiles": "Cc1ccc(CNC(=O)CCc2c(C)nc3nc(C)nn3c2C)cc1", "Potency": "inactive"},
      {"smiles": "CCn1cc2c(n1)-c1c(oc(C(=O)Nc3cccc(C)c3C)c1C)CC2", "Potency": "inconclusive: 29.1 µM [activator, single point]"}
    ]}
  ]
}
